Laboratory results reported in the supplement of paper PMC12823440, “Inhibitors supercharge kinase turnover through native proteolytic circuits” (Nature, 2025).
Where a name gives a salt, the structure may show the parent alone. The list shows a part of the results. The calls rarely recur for the same compound in another form.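 Kinases, fused to nanoluciferase, were expressed in K562 cells; luminescence was measured every 4 h from 2 to 18 h as percent of control (DMSO = 100%, positive control = 0%). A time point is decreased if signal falls significantly (2 sigma). Hits were called by the authors by a rule that is not shown; the count of time points alone does not decide it.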

Protein sequences, listed by entry. Tags and fused reporters are not part of them. Lines headed by an entry give the natural chain unless they say otherwise; changes in a name come on top.
UniProt Q9UQM7, whole entry: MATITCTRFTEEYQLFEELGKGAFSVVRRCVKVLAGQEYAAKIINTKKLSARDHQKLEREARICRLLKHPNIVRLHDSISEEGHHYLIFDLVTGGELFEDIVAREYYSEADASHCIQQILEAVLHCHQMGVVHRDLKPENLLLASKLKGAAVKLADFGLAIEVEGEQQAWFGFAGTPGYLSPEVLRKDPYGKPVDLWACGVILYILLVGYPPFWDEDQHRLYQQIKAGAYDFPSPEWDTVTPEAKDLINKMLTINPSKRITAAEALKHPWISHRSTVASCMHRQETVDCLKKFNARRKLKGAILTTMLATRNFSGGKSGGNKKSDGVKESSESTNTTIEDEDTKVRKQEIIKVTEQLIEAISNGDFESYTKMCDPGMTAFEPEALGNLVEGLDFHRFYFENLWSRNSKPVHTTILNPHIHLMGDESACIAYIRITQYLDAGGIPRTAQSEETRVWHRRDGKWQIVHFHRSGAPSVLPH
UniProt Q15131: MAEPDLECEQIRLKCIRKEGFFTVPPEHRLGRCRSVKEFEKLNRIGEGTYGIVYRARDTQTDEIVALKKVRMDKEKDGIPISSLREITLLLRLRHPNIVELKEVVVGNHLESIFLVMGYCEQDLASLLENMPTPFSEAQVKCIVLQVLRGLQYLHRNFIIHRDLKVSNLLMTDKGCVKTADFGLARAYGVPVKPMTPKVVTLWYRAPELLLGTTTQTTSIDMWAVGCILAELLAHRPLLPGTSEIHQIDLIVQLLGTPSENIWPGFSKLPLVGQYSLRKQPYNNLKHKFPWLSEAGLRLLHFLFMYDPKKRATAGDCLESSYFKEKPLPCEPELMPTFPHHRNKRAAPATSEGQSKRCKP
UniProt Q00526: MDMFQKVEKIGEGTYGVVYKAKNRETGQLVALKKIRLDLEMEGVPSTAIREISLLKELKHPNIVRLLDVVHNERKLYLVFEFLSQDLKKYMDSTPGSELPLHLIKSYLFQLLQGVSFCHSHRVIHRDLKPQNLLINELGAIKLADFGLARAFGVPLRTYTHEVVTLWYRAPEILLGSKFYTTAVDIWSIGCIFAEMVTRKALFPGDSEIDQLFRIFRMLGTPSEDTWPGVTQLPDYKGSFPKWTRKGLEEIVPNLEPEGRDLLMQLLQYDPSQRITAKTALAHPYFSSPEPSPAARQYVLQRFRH
UniProt P11802: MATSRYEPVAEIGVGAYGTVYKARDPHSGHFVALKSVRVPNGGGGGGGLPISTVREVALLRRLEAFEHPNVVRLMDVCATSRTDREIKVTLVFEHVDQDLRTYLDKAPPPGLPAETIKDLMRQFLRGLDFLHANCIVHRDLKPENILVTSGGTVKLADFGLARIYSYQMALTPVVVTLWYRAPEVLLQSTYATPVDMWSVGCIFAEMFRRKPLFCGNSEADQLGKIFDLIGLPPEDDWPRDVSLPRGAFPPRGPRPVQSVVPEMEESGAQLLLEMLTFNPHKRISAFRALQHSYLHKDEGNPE
UniProt Q00535, whole entry, looked up: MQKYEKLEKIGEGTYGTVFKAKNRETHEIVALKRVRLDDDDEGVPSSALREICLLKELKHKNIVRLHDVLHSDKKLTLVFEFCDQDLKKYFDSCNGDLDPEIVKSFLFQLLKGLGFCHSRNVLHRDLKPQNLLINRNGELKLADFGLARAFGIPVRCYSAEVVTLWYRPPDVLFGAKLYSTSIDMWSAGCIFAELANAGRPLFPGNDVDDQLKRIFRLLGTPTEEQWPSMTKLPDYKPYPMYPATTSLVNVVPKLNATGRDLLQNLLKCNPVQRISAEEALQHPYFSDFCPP
UniProt Q00534, whole entry: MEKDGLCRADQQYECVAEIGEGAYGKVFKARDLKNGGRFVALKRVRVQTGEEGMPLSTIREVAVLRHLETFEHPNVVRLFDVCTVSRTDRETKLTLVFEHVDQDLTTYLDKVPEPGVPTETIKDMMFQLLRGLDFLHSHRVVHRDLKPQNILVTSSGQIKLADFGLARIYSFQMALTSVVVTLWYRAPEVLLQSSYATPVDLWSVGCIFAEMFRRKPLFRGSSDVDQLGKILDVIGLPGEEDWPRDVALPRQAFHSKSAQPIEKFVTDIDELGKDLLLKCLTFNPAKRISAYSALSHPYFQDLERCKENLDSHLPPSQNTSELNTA
UniProt P50750, whole entry: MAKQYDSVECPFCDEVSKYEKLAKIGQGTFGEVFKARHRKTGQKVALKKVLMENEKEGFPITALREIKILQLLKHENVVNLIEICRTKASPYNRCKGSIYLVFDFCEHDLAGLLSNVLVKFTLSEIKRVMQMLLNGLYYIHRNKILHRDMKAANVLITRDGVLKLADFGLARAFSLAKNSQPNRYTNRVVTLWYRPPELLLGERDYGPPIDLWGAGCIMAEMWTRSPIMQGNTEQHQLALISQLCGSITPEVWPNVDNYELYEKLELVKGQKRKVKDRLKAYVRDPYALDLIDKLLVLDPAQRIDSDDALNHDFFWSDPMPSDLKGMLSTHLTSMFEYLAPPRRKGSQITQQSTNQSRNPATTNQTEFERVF
UniProt O96017, whole entry: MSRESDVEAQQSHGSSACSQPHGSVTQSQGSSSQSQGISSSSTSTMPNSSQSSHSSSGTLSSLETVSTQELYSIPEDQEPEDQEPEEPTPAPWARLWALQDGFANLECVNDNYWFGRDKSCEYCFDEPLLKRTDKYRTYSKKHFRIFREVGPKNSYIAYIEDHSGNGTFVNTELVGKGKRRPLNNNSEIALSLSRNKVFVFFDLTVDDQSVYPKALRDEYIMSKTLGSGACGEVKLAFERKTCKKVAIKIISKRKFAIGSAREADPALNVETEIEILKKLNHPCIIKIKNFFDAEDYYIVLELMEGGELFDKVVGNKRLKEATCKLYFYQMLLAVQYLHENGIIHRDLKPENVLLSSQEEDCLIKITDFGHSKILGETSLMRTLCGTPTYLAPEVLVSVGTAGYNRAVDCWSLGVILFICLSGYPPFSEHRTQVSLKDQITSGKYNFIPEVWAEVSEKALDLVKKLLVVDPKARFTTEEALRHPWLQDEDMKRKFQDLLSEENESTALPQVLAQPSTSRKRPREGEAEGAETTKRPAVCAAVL
UniProt P07333, whole entry: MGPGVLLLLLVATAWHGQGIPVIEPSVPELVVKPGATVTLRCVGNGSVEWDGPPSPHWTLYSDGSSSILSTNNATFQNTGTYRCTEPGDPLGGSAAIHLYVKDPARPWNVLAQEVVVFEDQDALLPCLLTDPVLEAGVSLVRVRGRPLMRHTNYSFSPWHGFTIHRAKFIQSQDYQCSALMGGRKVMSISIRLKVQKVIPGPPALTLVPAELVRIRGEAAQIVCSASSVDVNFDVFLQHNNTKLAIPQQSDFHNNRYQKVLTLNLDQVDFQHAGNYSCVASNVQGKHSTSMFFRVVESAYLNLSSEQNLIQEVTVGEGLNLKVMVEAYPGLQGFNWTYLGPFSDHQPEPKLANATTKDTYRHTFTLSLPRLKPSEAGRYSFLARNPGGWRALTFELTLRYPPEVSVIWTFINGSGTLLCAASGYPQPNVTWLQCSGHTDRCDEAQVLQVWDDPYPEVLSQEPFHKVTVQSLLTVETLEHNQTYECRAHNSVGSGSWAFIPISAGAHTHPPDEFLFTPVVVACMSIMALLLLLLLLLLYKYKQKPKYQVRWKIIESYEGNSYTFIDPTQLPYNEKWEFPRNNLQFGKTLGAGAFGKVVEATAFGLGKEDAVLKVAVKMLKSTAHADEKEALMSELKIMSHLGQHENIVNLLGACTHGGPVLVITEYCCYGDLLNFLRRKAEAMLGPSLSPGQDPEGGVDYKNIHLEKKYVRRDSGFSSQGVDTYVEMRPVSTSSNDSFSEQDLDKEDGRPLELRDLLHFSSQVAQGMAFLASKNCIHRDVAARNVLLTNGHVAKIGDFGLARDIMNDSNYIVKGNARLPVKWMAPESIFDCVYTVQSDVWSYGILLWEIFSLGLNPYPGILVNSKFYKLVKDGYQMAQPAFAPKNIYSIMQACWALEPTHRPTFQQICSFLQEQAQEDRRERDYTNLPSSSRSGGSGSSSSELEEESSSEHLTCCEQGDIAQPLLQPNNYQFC
UniProt P41240: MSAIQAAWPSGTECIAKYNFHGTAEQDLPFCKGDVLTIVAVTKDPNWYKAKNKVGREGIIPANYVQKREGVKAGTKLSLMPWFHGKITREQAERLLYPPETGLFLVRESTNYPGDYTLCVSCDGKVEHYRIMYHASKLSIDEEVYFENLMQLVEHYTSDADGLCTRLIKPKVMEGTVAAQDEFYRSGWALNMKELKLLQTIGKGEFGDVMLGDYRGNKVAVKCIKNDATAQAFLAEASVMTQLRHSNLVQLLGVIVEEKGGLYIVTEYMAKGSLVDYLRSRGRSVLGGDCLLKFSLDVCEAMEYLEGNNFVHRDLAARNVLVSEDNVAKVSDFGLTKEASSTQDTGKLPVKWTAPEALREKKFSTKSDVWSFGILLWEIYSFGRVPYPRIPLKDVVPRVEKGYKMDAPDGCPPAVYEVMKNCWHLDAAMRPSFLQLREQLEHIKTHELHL
UniProt P48729: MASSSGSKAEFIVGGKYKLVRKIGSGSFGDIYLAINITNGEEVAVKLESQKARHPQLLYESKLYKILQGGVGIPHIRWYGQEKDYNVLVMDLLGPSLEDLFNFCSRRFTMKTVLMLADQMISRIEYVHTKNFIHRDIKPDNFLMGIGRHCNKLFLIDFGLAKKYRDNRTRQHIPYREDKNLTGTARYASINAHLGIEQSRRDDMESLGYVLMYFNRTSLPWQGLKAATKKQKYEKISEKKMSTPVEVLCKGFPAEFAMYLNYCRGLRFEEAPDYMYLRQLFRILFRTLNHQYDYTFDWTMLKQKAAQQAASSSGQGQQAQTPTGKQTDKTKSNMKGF
UniProt Q08345: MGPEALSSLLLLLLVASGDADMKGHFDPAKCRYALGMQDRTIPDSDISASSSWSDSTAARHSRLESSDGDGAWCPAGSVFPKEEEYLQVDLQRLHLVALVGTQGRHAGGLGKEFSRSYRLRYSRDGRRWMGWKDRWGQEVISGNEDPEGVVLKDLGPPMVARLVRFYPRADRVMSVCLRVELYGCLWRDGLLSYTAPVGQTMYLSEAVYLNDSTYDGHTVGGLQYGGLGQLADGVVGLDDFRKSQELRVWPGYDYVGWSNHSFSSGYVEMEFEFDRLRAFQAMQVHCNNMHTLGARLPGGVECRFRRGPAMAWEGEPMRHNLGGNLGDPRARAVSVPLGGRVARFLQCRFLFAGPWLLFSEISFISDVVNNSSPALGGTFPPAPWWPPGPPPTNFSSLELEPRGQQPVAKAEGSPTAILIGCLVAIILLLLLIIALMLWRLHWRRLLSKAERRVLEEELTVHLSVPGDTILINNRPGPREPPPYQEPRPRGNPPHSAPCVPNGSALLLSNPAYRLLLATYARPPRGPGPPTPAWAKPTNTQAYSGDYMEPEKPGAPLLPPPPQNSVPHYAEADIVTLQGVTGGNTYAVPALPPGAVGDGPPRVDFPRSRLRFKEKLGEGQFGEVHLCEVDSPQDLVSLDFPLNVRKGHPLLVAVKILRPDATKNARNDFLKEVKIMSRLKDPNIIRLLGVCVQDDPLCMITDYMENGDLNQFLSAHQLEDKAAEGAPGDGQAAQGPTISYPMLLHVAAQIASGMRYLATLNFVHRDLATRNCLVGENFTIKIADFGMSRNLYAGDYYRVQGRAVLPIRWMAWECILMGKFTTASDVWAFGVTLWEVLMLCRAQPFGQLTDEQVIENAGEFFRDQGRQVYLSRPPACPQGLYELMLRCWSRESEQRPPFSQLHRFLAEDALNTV
UniProt Q9Y463, whole entry, looked up: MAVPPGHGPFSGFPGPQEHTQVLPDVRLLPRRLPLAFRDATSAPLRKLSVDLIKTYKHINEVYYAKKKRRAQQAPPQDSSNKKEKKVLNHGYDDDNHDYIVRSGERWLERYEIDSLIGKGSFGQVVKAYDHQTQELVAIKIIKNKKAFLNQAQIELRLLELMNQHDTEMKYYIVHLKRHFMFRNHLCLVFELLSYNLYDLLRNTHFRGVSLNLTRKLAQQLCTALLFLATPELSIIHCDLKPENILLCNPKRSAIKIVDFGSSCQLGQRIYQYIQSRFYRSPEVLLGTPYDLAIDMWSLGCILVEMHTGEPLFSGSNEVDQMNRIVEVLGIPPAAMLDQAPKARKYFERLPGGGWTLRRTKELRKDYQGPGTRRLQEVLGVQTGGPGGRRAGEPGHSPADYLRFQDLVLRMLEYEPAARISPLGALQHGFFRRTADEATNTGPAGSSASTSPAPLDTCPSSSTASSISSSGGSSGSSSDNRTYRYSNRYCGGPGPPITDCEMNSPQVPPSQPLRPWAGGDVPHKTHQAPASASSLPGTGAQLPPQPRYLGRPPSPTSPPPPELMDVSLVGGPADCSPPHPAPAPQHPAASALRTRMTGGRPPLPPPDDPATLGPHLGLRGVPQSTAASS

Legend:
Test in all cases: kinase-Nluc reporter destabilization hit call (1 = scored as downregulated) (binary); higher = compound decreases kinase abundance
Settings in all cases: K562; 2-18 h
BRAF_V600E = system: BRAF_V600E
BTK = BTK (UniProt Q06187)
CAMK2A = CAMK2A (UniProt Q9UQM7)
CAMK2G = CAMK2G (UniProt Q13555)
CDK10 = CDK10 (UniProt Q15131)
CDK2 = CDK2 (UniProt P24941)
CDK3 = CDK3 (UniProt Q00526)
CDK4 = CDK4 (UniProt P11802)
CDK5 = CDK5 (UniProt Q00535)
CDK6 = CDK6 (UniProt Q00534)
CDK7 = CDK7 (UniProt P50613)
CDK9 = CDK9 (UniProt P50750)
CHEK2 = CHEK2 (UniProt O96017)
CSF1R = CSF1R (UniProt P07333)
CSK = CSK (UniProt P41240)
CSNK1A1 = CSNK1A1 (UniProt P48729)
CSNK1D = CSNK1D (UniProt P48730)
DDR1 = DDR1 (UniProt Q08345)
DYRK1B = DYRK1B (UniProt Q9Y463)
DYRK2 = DYRK2 (UniProt Q92630)

Measured: kinase-Nluc reporter destabilization hit call

NC(=O)c1nc(Nc2ccccc2)sc1NC(=O)C1CCCCC1 (10 µM)
inactive: BRAF_V600E 0 | BTK 0 | CAMK2A 0 | CAMK2G 0 | CDK10 = 0 | CDK2 = 0 | CDK3 = 0 | CDK4 = 0 | CDK5 = 0 | CDK6 = 0 | CDK7 = 0 | CDK9 = 0 | CHEK2 = 0 | CSF1R 0 | CSK 0 | CSNK1A1 = 0 | CSNK1D 0 | DDR1 = 0 | DYRK1B 0 | DYRK2 = 0

CNC(=O)c1cc(COc2nnc(Nc3ccc(Cl)cc3)c3ccoc23)ccn1 [Telatinib] (10 µM)
inactive: BRAF_V600E 0 | BTK 0 | CAMK2A 0 | CAMK2G 0 | CDK10 = 0 | CDK2 = 0 | CDK3 = 0 | CDK4 = 0 | CDK5 = 0 | CDK6 = 0 | CDK7 = 0 | CDK9 = 0 | CHEK2 = 0 | CSF1R 0 | CSK 0 | CSNK1A1 = 0 | CSNK1D 0 | DDR1 = 0 | DYRK1B 0 | DYRK2 = 0

C=CC(=O)Nc1ccc(CN2C(=O)N(c3cc(OC)cc(OC)c3)Cc3cnc(Nc4ccc(N5CCN(C)CC5)cc4)nc32)cc1 (2.5 µM)
inactive: BRAF_V600E 0 | BTK 0 | CAMK2A 0 | CAMK2G 0 | CDK10 = 0 | CDK2 = 0 | CDK3 = 0 | CDK4 = 0 | CDK5 = 0 | CDK6 = 0 | CDK7 = 0 | CDK9 = 0 | CHEK2 = 0 | CSF1R 0 | CSK 0 | CSNK1A1 = 0 | CSNK1D 0 | DDR1 = 0 | DYRK1B 0 | DYRK2 = 0

CC1(C)C(O[C@@H]2OC[C@@H](O)[C@H](O)[C@H]2O)CC[C@]23CC24CC[C@]2(C)[C@@H]([C@@]5(C)CC[C@@H](C(C)(C)O)O5)[C@H](O)C[C@@]2(C)C4C[C@@H](O[C@@H]2O[C@H](CO)[C@@H](O)[C@H](O)[C@H]2O)C13 (stereo not given in full) [Astragaloside IV] (10 µM)
inactive: BRAF_V600E 0 | BTK 0 | CAMK2A 0 | CAMK2G 0 | CDK10 = 0 | CDK2 = 0 | CDK3 = 0 | CDK4 = 0 | CDK5 = 0 | CDK6 = 0 | CDK7 = 0 | CDK9 = 0 | CHEK2 = 0 | CSF1R 0 | CSK 0 | CSNK1A1 = 0 | CSNK1D 0 | DDR1 = 0 | DYRK1B 0 | DYRK2 = 0

Cn1cnc2c(F)c(Nc3ccc(Br)cc3Cl)c(C(=O)NOCCO)cc21 [Selumetinib] (10 µM)
inactive: BRAF_V600E 0 | BTK 0 | CAMK2A 0 | CAMK2G 0 | CDK10 = 0 | CDK2 = 0 | CDK3 = 0 | CDK4 = 0 | CDK5 = 0 | CDK6 = 0 | CDK7 = 0 | CDK9 = 0 | CHEK2 = 0 | CSF1R 0 | CSK 0 | CSNK1A1 = 0 | CSNK1D 0 | DDR1 = 0 | DYRK1B 0 | DYRK2 = 0

COc1cc(Nc2ncc(F)c(Nc3ccc4c(n3)N(COP(=O)(O)O)C(=O)C(C)(C)O4)n2)cc(OC)c1OC [Fostamatinib Disodium] (10 µM)
inactive: BRAF_V600E 0 | BTK 0 | CAMK2A 0 | CAMK2G 0 | CDK10 = 0 | CDK2 = 0 | CDK3 = 0 | CDK4 = 0 | CDK5 = 0 | CDK6 = 0 | CDK7 = 0 | CDK9 = 0 | CHEK2 = 0 | CSF1R 0 | CSK 0 | CSNK1A1 = 0 | CSNK1D 0 | DDR1 = 0 | DYRK1B 0 | DYRK2 = 0

C[C@@H](c1ccc(F)cc1)n1nnc2cnc3ccc(-c4ccc5ocnc5c4)cc3c21 (10 µM)
inactive: BRAF_V600E 0 | BTK 0 | CAMK2A 0 | CAMK2G 0 | CDK10 = 0 | CDK2 = 0 | CDK3 = 0 | CDK4 = 0 | CDK5 = 0 | CDK6 = 0 | CDK7 = 0 | CDK9 = 0 | CHEK2 = 0 | CSF1R 0 | CSK 0 | CSNK1A1 = 0 | CSNK1D 0 | DDR1 = 0 | DYRK1B 0 | DYRK2 = 0

CCCCCCCCCCCCC/C=C/[C@@H](O)[C@@H](N)CO [D-erythro-Sphingosine] (2.5 µM)
inactive: BRAF_V600E 0 | BTK 0 | CAMK2A 0 | CAMK2G 0 | CDK10 = 0 | CDK2 = 0 | CDK3 = 0 | CDK4 = 0 | CDK5 = 0 | CDK6 = 0 | CDK7 = 0 | CDK9 = 0 | CHEK2 = 0 | CSF1R 0 | CSK 0 | CSNK1A1 = 0 | CSNK1D 0 | DDR1 = 0 | DYRK1B 0 | DYRK2 = 0

C=CC(=O)Nc1cc(Nc2ncc(Cl)c(-c3c[nH]c4ccccc34)n2)c(OC)cc1N(C)CCN(C)C [Mutant EGFR inhibitor] (2.5 µM)
inactive: BRAF_V600E 0 | BTK 0 | CAMK2A 0 | CAMK2G 0 | CDK10 = 0 | CDK2 = 0 | CDK3 = 0 | CDK4 = 0 | CDK5 = 0 | CDK6 = 0 | CDK7 = 0 | CDK9 = 0 | CHEK2 = 0 | CSF1R 0 | CSK 0 | CSNK1A1 = 0 | CSNK1D 0 | DDR1 = 0 | DYRK1B 0 | DYRK2 = 0

CN(CC(=O)N(Cc1ccc(C2CCCCC2)cc1)c1ccc(C(=O)NO)cc1)S(=O)(=O)c1c(F)c(F)c(F)c(F)c1F (2.5 µM)
inactive: BRAF_V600E 0 | BTK 0 | CAMK2A 0 | CAMK2G 0 | CDK10 = 0 | CDK2 = 0 | CDK3 = 0 | CDK4 = 0 | CDK5 = 0 | CDK6 = 0 | CDK7 = 0 | CDK9 = 0 | CHEK2 = 0 | CSF1R 0 | CSK 0 | CSNK1A1 = 0 | CSNK1D 0 | DDR1 = 0 | DYRK1B 0 | DYRK2 = 0

COc1cccc(OC)c1C(=O)OCc1cc(O)ccc1O[C@@H]1O[C@H](CO)[C@@H](O)[C@H](O)[C@H]1O [Curculigoside] (10 µM)
inactive: BRAF_V600E 0 | BTK 0 | CAMK2A 0 | CAMK2G 0 | CDK10 = 0 | CDK2 = 0 | CDK3 = 0 | CDK4 = 0 | CDK5 = 0 | CDK6 = 0 | CDK7 = 0 | CDK9 = 0 | CHEK2 = 0 | CSF1R 0 | CSK 0 | CSNK1A1 = 0 | CSNK1D 0 | DDR1 = 0 | DYRK1B 0 | DYRK2 = 0

COc1ccc(Cl)c(Nc2nc3ccccc3nc2NS(=O)(=O)c2cccc(NC(=O)C(C)(C)N)c2)c1 [Pilaralisib] (10 µM)
inactive: BRAF_V600E 0 | BTK 0 | CAMK2A 0 | CAMK2G 0 | CDK10 = 0 | CDK2 = 0 | CDK3 = 0 | CDK4 = 0 | CDK5 = 0 | CDK6 = 0 | CDK7 = 0 | CDK9 = 0 | CHEK2 = 0 | CSF1R 0 | CSK 0 | CSNK1A1 = 0 | CSNK1D 0 | DDR1 = 0 | DYRK1B 0 | DYRK2 = 0

COc1ccccc1-c1cc(Nc2cccc(CS(N)(=O)=O)c2)ncn1 (10 µM)
inactive: BRAF_V600E 0 | BTK 0 | CAMK2A 0 | CAMK2G 0 | CDK10 = 0 | CDK2 = 0 | CDK3 = 0 | CDK4 = 0 | CDK5 = 0 | CDK6 = 0 | CDK7 = 0 | CDK9 = 0 | CHEK2 = 0 | CSF1R 0 | CSK 0 | CSNK1A1 = 0 | CSNK1D 0 | DDR1 = 0 | DYRK1B 0 | DYRK2 = 0

C=CC(=O)Nc1cccc(Nc2nc(Nc3ccc(N4CCN(C(C)=O)CC4)cc3OC)ncc2C(F)(F)F)c1 [Rociletinib hydrobromide] (10 µM)
inactive: BRAF_V600E 0 | BTK 0 | CAMK2A 0 | CAMK2G 0 | CDK10 = 0 | CDK2 = 0 | CDK3 = 0 | CDK4 = 0 | CDK5 = 0 | CDK6 = 0 | CDK7 = 0 | CDK9 = 0 | CHEK2 = 0 | CSF1R 0 | CSK 0 | CSNK1A1 = 0 | CSNK1D 0 | DDR1 = 0 | DYRK1B 0 | DYRK2 = 0

Cn1ncc(Cl)c1-c1cc(C(=O)N[C@H](CN)Cc2ccc(F)c(F)c2)oc1Cl [Uprosertib] (10 µM)
inactive: BRAF_V600E 0 | BTK 0 | CAMK2A 0 | CAMK2G 0 | CDK10 = 0 | CDK2 = 0 | CDK3 = 0 | CDK4 = 0 | CDK5 = 0 | CDK6 = 0 | CDK7 = 0 | CDK9 = 0 | CHEK2 = 0 | CSF1R 0 | CSK 0 | CSNK1A1 = 0 | CSNK1D 0 | DDR1 = 0 | DYRK1B 0 | DYRK2 = 0

N#CCC1CCN(c2nc(Nc3ccc(N4CCC(O)CC4)cc3)c3c(=O)[nH]ncc3n2)CC1 [Gusacitinib] (10 µM)
inactive: BRAF_V600E 0 | BTK 0 | CAMK2A 0 | CAMK2G 0 | CDK10 = 0 | CDK2 = 0 | CDK3 = 0 | CDK4 = 0 | CDK5 = 0 | CDK6 = 0 | CDK7 = 0 | CDK9 = 0 | CHEK2 = 0 | CSF1R 0 | CSK 0 | CSNK1A1 = 0 | CSNK1D 0 | DDR1 = 0 | DYRK1B 0 | DYRK2 = 0

Cn1cnc2c(F)c(Nc3ccc(Br)cc3Cl)c(C(=O)NOCCO)cc21 [Selumetinib (sulfate)] (10 µM)
inactive: BRAF_V600E 0 | BTK 0 | CAMK2A 0 | CAMK2G 0 | CDK10 = 0 | CDK2 = 0 | CDK3 = 0 | CDK4 = 0 | CDK5 = 0 | CDK6 = 0 | CDK7 = 0 | CDK9 = 0 | CHEK2 = 0 | CSF1R 0 | CSK 0 | CSNK1A1 = 0 | CSNK1D 0 | DDR1 = 0 | DYRK1B 0 | DYRK2 = 0

Taken from above (2 entries):
N#CCC1CCN(c2nc(Nc3ccc(N4CCC(O)CC4)cc3)c3c(=O)[nH]ncc3n2)CC1 [Gusacitinib] (10 µM)
inactive: BRAF_V600E 0 | BTK 0 | CAMK2A 0 | CAMK2G 0 | CDK10 = 0 | CDK2 = 0 | CDK3 = 0 | CDK4 = 0 | CDK5 = 0 | CDK6 = 0 | CDK7 = 0 | CDK9 = 0 | CHEK2 = 0 | CSF1R 0 | CSK 0 | CSNK1A1 = 0 | CSNK1D 0 | DDR1 = 0 | DYRK1B 0 | DYRK2 = 0

Cn1cnc2c(F)c(Nc3ccc(Br)cc3Cl)c(C(=O)NOCCO)cc21 [Selumetinib (sulfate)] (10 µM)
inactive: BRAF_V600E 0 | BTK 0 | CAMK2A 0 | CAMK2G 0 | CDK10 = 0 | CDK2 = 0 | CDK3 = 0 | CDK4 = 0 | CDK5 = 0 | CDK6 = 0 | CDK7 = 0 | CDK9 = 0 | CHEK2 = 0 | CSF1R 0 | CSK 0 | CSNK1A1 = 0 | CSNK1D 0 | DDR1 = 0 | DYRK1B 0 | DYRK2 = 0

Next part

COc1cc2ncc(-c3ccccc3)nc2cc1OC [Tyrphostin AG1296] (10 µM)
inactive: BRAF_V600E 0 | BTK 0 | CAMK2A 0 | CAMK2G 0 | CDK10 = 0 | CDK2 = 0 | CDK3 = 0 | CDK4 = 0 | CDK5 = 0 | CDK6 = 0 | CDK7 = 0 | CDK9 = 0 | CHEK2 = 0 | CSF1R 0 | CSK 0 | CSNK1A1 = 0 | CSNK1D 0 | DDR1 = 0 | DYRK1B 0 | DYRK2 = 0
